Experimental data as given in PubChem BioAssay AID504444 (National Center for Advancing Translational Sciences (NCATS), 2011).
Screen size: about 360,000 compounds; about 7,500 (2.1%) were called active. The inconclusive results got no clear call from the source; some entries with a clear call stand among them for comparison. The call rests on the fitted dose curve; in most records, active means well fitted inhibition curve with a large enough effect; inconclusive means small, poorly fitted or top-dose-only effect, or effect the other way; inactive means flat fitted curve, though single readings scatter. Potencies of inconclusive entries are doubtful fits and often do not repeat.

experiment: Nrf2 qHTS screen for inhibitors; details: A549 ARE-Fluc reporter, luciferase luminescence, 18-24 h; activity change, negative = inhibition: at 46 µM (top of the series); further: nearly all actives have a fitted effect of over 60% in size
Outline: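 Two sequential reads on A549 ARE_Fluc cells exposed to compound for 18-24 h: a CellTiter-Fluor fluorescence read for viability, then a luciferase luminescence read for Nrf2/ARE activity.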
On the % scale 0 is the no-effect control and ±100 the full control effect; potency means the concentration at half of the fitted maximal effect.

Row | Structure (SMILES) | Potency | activity change, negative = inhibition
1 | COc1ccc(OC)c(S(=O)(=O)Nc2ccc(Oc3ccccc3)cc2)c1 | inconclusive: 29.1 µM [falling, single point] | –
2 | C=C(C)c1cccc(C(C)(C)NC(=O)Nc2cc(C)ccn2)c1 | active: 14.6 µM | –
3 | COc1ccc(N2CCN(C(=O)CSc3nnc4c(C)cc5c(C)cc(C)cc5n34)CC2)cc1 | inconclusive: 10.3 µM [falling, partial curve, poor fit] | –
4 | Cc1ccc(-c2nnc(SCC(=O)NC3CC3)o2)cc1 | inconclusive: 29.1 µM [activator, single point] | –
5 | CCC(C)n1c(=S)[nH]c2c(sc3ccc([N+](=O)[O-])cc32)c1=O (stereo not drawn) | inconclusive: 29.1 µM [falling, single point] | –
6 | Cc1ccc(C)c(N2CCN(CCCNC(=O)c3nnc(Cc4ccc(F)cc4Cl)o3)CC2)c1 | inconclusive: 18.4 µM [falling, single point] | –
7 | O=C(CC1OC(=O)c2ccccc21)Nc1cccc(S(=O)(=O)N2CCCCCC2)c1 (stereo not drawn) | inconclusive: 25.9 µM [falling, partial curve, poor fit] | –
8 | Cc1ccc(C(=O)NC(=S)Nc2ccc(N3CCOCC3)cc2)c(C)c1 | – | inactive: -0.701%
9 | Cc1cc(C)c(NC(=S)N(Cc2cccnc2)Cc2ccco2)c(C)c1 | inconclusive: 23.1 µM [falling, single point] | –
10 | CCc1cc2c(-c3ccccc3)cc(=O)oc2cc1OC(=O)c1cccs1 | inconclusive: 25.9 µM [activator, partial curve, poor fit] | –
11 | COc1ccc(Nc2nc(CC(C)=O)ns2)cc1 | inconclusive: 6.51 µM [activator, partial curve] | –
12 | CC(=O)c1c(C)[nH]c(C(=O)CSc2nc3ccc(C)cc3[nH]2)c1C | inconclusive: 10.3 µM [falling, partial curve] | –
13 | CC(=O)c1c(C)[nH]c(C(=O)Nc2cccc(S(=O)(=O)N3CCCC3)c2)c1C | inconclusive: 14.6 µM [falling, partial curve] | –
14 | N/C(Cn1cncn1)=N\OC(=O)c1ccc(Cl)cc1Cl | inconclusive: 0.651 µM [activator, full curve, poor fit] | –
15 | CCCOc1ccc(NC(=O)C2CC(=O)N/C(=N/N=C(C)/C=C/c3ccc(N(C)C)cc3)S2)cc1 (stereo not drawn) | inconclusive: 29.1 µM [falling, partial curve, poor fit] | –
16 | COc1ccc(-c2csc3nc(-c4ccccc4F)oc(=O)c23)cc1OC | inconclusive: 6.51 µM [falling, single point] | –
17 | COc1ccc(N2C(N)=NC(N)=NC2(C)C)cc1 | inconclusive: 25.9 µM [falling, partial curve] | –
18 | Cc1ccc(NC(=O)CCNS(=O)(=O)c2ccc(Br)cc2)cc1S(=O)(=O)N1CCOCC1 | inconclusive: 9.2 µM [falling, partial curve, poor fit] | –
19 | Cc1ccc(NC(=O)c2c(C(F)(F)F)nn(C)c2SCc2cccc(C(F)(F)F)c2)cc1C | inconclusive: 20.6 µM [falling, single point] | –
20 | CS(=O)(=O)N1CCN(c2ccccc2NC(=O)Nc2cccc(Cl)c2)CC1 | inconclusive: 6.51 µM [falling, full curve] | –
21 | COc1ccc(-n2c(NN)nc3sc4c(c3c2=O)CCCC4)cc1 | inconclusive: 23.1 µM [falling, single point] | –

In the list so far, these have two or more sulfur atoms:
Row | Structure (SMILES) | Potency | activity change, negative = inhibition
5 | CCC(C)n1c(=S)[nH]c2c(sc3ccc([N+](=O)[O-])cc32)c1=O (stereo not drawn) | inconclusive: 29.1 µM [falling, single point] | –
18 | Cc1ccc(NC(=O)CCNS(=O)(=O)c2ccc(Br)cc2)cc1S(=O)(=O)N1CCOCC1 | inconclusive: 9.2 µM [falling, partial curve, poor fit] | –

The listing continues:

Row | Structure (SMILES) | Potency | activity change, negative = inhibition
22 | Cc1cc(OC(C)C(=O)N2CCN(c3ccc(F)cc3)CC2)c2c(C)cc(=O)oc2c1 (stereo not drawn) | inconclusive: 2.31 µM [falling, partial curve] | –
23 | CCCCc1ccc(NC(=O)c2ccc3c(c2)CCN3S(=O)(=O)c2ccccc2)cc1 | inconclusive: 32.6 µM [falling, single point] | –
24 | CC(C)Cn1c(CNC(=O)c2ccccc2)nc2ccccc21 | inconclusive: 2.59 µM [activator, full curve, poor fit] | –
25 | CCCCn1c(SCC(=O)NCc2ccccc2)nc2ccc(N3CCOCC3)cc2c1=O | inconclusive: 0.0046 µM [falling, full curve, poor fit] | –
26 | Cc1cccc(C)c1NC(=O)c1ccc(-c2ccc(Cl)cc2Cl)o1 | inconclusive: 29.1 µM [falling, single point] | –
27 | CCOc1cc(C(=O)Nc2ccc(S(=O)(=O)Nc3cc(OC)nc(OC)n3)cc2)cc(OCC)c1OCC | inconclusive: 29.1 µM [falling, partial curve, poor fit] | –
28 | Cn1nc(C(C)(C)C)c([N+](=O)[O-])c1C(=O)Nc1ccc(Br)cc1 | inconclusive: 18.4 µM [falling, single point] | –
29 | CCCCOc1ccc(C(=O)NCC(=O)N2CCN(Cc3ccc4c(c3)OCO4)CC2)cc1 | inconclusive: 16.4 µM [falling, single point] | –
30 | CCOC(=O)C1CCCN(C/C(O)=C(\C#N)c2nc(-c3ccc(Cl)cc3)cs2)C1 (stereo not drawn) | inconclusive: 18.4 µM [falling, single point] | –
31 | COc1ccc2nc3cc(Cl)ccc3c(C#N)c2c1 | inconclusive: 1.3 µM [activator, full curve] | –
32 | CCC(C)Sc1cc(C(F)(F)F)c(C(=O)Nc2ccc(Cl)cc2)cn1 (stereo not drawn) | inconclusive: 23.1 µM [falling, partial curve, poor fit] | –
33 | COc1ccc(OC)c(NC(=O)N2CCC(CN3CCCCC3)CC2)c1 | inconclusive: 16.4 µM [activator, single point] | –
34 | COc1ccc(C(F)(F)F)cc1NC(=O)C(OC(=O)CNC(=O)c1ccccc1)c1ccccc1 (stereo not drawn) | – | inactive: 12%
35 | CCN1CCN(C(=O)c2cc(COc3c(C)cccc3C)on2)CC1 | inconclusive: 29.1 µM [activator, single point] | –
36 | CC(C)Cn1cc(C(=O)N2CCN(c3cccc(Cl)c3)CC2)c2c3ccccc3n(C)c2c1=O | active: 20.6 µM | –
37 | CN(c1ccccc1)S(=O)(=O)c1ccc(C(=O)Nc2nnc(C3=COCCO3)o2)cc1 | inconclusive: 25.9 µM [falling, single point] | –
38 | CCN(CC)C(=O)/C(=C\c1cccc([N+](=O)[O-])c1)NC(=O)c1ccco1 | – | inactive: 9.39%
39 | Clc1ccc2[nH]cc(-c3nnnn3-c3ccccc3)c2c1 | – | inactive: 17.6%
40 | O=C(Oc1ccc(-c2cnc3ccccc3n2)cc1)c1ccco1 | inconclusive: 20.6 µM [activator, single point] | –
41 | CCOC(=O)N1CCC(NC(=O)c2ccc3c(c2)N=C(C)c2ccccc2S3)CC1 | active: 20.6 µM | –
42 | O=C(Nc1nc(-c2cc(Cl)sc2Cl)cs1)c1ccc(Br)s1 | inconclusive: 14.6 µM [falling, partial curve, poor fit] | –

Row | Structure (SMILES) | Potency | activity change, negative = inhibition
43 | Clc1nc(NCc2cccs2)c2[nH]cnc2n1 | active: 23.1 µM | –
44 | COc1ccc(C)cc1S(=O)(=O)NC1CCCCC1C (stereo not drawn) | – | inactive: -14.1%
45 | O=C(CC1SC(=Nc2ccccc2)N(Cc2ccccn2)C1=O)Nc1cccc(Cl)c1 (stereo not drawn) | active: 25.9 µM | –
46 | O=C(C1CCCN(c2ncnc3c2nc2n3CCCCC2)C1)N1CCN(c2ccc(Cl)cc2)CC1 (stereo not drawn) | inconclusive: 29.1 µM [falling, single point] | –
47 | Cc1cc(Cl)ccc1OCCCC(=O)N1CCN(S(=O)(=O)c2ccccc2)CC1 | inconclusive: 14.6 µM [falling, partial curve] | –
48 | O=C(NCc1ccco1)/C(=C/c1ccc(C(F)(F)F)cc1)c1nc2ccccc2[nH]1 | inconclusive: 11.6 µM [activator, partial curve, poor fit] | –
49 | COc1ccc(NC(=O)CSc2n[nH]c(-c3ccccn3)n2)cc1 | inconclusive: 13 µM [falling, partial curve, poor fit] | –
50 | C#CCOc1ccccc1/C=N/NC(=O)c1ccccc1OCc1ccccc1 | inconclusive: 18.4 µM [falling, single point] | –
51 | C[C@H](CO)N1C[C@H](C)[C@@H](CN(C)S(=O)(=O)c2cn(C)cn2)Oc2ccc(NC(=O)Cc3ccccc3)cc2C1=O | – | inactive: -0.861%
52 | COC(=O)C[C@H]1c2cc(F)ccc2S(=O)(=O)N1Cc1ccccc1 | – | inactive: 8.15%
53 | O=C(Nc1ccc(C(=O)N2CCN(c3ccccc3)CC2)cc1)C1=CSCCO1 | inconclusive: 18.4 µM [falling, single point] | –
54 | O=C(N1CCCCC1)N1CCN(c2ccc(Cl)cc2)CC1 | inconclusive: 25.9 µM [falling, single point] | –
55 | Nc1cc(S(=O)(=O)N2CCCCC2)ccc1Oc1ccccc1 | inconclusive: 29.1 µM [falling, single point] | –
56 | COc1cc(CC(C#N)(CO)c2nc3ccccc3[nH]2)ccc1OC(F)F (stereo not drawn) | inconclusive: 11.6 µM [falling, partial curve] | –
57 | COc1ccc(OC)c(-c2cc(C(=O)Nc3ccccc3C(N)=O)c3ccccc3n2)c1 | inconclusive: 18.4 µM [falling, single point] | –
58 | CCCNC(=S)Nc1ccc(Oc2ccccc2)cc1 | inconclusive: 23.1 µM [falling, single point] | –
59 | CCOc1ccc(Nc2c(S(=O)(=O)c3ccccc3)cnc3ccccc23)cc1 | inconclusive: 29.1 µM [falling, single point] | –
60 | COc1ccc(CC(=O)Nc2ccc(-c3cn4ccc(C)cc4n3)cc2)cc1 | inconclusive: 16.4 µM [falling, partial curve, poor fit] | –
61 | NC(=N\N=Cc1ccco1)/C(N)=N/N=Cc1ccco1 | inconclusive: 25.9 µM [activator, partial curve] | –
62 | COc1ccc(CSc2nnc3[nH]c(=O)cc(N)n23)cc1 | inconclusive: 23.1 µM [falling, partial curve, poor fit] | –
63 | C=CCn1c(SCC(=O)Nc2ccccc2C)nc2sc(C)c(C)c2c1=O | inconclusive: 8.2 µM [falling, partial curve, poor fit] | –
